Some of the results follow.
Columns and labels:
Assay in all cases: log2 fold change, soluble protein after heating vs DMSO (PISA); higher = thermal stabilisation; K562 lysate, 10 uM; active = over 0.2 and 3.5 SD of the protein, either way, in both replicates (recomputed)
alvocidib = compound: CN1CC[C@H](c2c(O)cc(O)c3c(=O)cc(-c4ccccc4Cl)oc23)[C@H](O)C1 [alvocidib]
Method in brief: (§1)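 K562 pellets were dounce-homogenised in PBS pH 7.4 with 1 mM MgCl2, and the crude extract at 1 mg/mL protein was treated with 10 μM compound for 30 min. Aliquots were heated for 3 min across 48°C-58°C, pooled, and brought to 0.5% NP-40 at 4°C; soluble protein was the supernatant after 21,000xg for 90 min. Soluble protein was quantified by TMTpro 16plex LC-MS/MS with channel sums equalised, and reported as log2 fold change in thermal stability against DMSO controls, with values from duplicates.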

The chains behind the UniProt entries cited, without tags or fusion partners. Where a name states a change or a piece, a line headed by the entry shows the natural chain unless it says otherwise.
UniProt Q8TEB9: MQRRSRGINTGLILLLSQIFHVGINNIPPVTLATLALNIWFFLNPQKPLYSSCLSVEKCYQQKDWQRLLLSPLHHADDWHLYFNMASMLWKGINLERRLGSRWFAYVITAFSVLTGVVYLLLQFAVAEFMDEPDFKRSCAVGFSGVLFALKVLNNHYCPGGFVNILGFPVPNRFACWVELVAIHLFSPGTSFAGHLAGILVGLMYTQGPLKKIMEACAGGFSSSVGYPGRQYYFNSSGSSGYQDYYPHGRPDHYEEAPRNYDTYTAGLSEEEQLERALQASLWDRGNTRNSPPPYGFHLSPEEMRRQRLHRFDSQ
UniProt O94761: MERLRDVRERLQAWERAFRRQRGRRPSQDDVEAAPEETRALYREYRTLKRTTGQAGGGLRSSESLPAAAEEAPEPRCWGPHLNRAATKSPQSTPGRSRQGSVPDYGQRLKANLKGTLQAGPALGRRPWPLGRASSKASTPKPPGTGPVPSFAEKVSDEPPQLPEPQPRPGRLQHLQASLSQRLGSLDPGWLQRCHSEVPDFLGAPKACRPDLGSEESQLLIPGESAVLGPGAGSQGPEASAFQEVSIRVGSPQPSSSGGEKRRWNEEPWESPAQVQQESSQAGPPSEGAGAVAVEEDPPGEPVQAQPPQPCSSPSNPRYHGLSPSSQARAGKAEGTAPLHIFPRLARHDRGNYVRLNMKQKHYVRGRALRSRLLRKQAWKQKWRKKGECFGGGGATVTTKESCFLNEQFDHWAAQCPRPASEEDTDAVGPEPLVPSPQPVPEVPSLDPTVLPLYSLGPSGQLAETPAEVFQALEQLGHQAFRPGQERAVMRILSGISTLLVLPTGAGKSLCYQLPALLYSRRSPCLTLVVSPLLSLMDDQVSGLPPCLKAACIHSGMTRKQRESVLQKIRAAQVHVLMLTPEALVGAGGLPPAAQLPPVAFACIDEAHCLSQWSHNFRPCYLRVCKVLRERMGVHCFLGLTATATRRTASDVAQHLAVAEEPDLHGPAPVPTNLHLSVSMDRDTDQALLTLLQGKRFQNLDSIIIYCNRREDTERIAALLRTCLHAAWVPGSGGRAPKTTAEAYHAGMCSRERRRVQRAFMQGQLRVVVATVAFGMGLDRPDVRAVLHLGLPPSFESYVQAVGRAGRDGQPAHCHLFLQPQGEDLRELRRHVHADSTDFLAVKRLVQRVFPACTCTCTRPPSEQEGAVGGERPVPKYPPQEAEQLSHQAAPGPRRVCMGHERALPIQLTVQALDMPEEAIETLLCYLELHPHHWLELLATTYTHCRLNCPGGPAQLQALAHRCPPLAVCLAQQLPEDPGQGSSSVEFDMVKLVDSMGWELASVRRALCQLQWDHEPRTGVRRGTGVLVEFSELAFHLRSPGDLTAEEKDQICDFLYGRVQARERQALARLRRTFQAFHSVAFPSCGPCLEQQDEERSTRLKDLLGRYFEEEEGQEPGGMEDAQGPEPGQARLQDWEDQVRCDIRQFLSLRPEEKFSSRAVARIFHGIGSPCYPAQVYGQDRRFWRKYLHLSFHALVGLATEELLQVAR
UniProt Q8N0V3: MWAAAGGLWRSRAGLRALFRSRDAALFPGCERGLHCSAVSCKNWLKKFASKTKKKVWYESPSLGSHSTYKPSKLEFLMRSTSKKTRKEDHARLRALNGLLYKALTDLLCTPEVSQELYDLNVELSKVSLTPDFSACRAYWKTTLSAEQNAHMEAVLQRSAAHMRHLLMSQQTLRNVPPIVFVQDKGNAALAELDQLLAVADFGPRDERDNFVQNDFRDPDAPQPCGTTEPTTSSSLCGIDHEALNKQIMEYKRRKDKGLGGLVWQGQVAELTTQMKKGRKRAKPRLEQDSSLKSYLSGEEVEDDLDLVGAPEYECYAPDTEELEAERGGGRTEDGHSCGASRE
UniProt Q02161: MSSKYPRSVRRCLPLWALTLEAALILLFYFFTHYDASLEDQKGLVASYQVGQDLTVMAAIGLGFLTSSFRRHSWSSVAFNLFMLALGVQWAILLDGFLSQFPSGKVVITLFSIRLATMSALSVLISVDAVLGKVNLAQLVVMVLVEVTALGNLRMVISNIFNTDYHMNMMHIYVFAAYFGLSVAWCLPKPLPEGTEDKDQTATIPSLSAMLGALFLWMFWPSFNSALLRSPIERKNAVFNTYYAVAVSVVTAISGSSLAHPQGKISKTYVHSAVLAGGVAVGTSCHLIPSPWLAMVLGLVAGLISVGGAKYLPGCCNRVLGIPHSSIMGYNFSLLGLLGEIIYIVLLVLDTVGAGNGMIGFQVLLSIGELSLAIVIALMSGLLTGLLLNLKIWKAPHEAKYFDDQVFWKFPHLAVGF
UniProt Q96IC2: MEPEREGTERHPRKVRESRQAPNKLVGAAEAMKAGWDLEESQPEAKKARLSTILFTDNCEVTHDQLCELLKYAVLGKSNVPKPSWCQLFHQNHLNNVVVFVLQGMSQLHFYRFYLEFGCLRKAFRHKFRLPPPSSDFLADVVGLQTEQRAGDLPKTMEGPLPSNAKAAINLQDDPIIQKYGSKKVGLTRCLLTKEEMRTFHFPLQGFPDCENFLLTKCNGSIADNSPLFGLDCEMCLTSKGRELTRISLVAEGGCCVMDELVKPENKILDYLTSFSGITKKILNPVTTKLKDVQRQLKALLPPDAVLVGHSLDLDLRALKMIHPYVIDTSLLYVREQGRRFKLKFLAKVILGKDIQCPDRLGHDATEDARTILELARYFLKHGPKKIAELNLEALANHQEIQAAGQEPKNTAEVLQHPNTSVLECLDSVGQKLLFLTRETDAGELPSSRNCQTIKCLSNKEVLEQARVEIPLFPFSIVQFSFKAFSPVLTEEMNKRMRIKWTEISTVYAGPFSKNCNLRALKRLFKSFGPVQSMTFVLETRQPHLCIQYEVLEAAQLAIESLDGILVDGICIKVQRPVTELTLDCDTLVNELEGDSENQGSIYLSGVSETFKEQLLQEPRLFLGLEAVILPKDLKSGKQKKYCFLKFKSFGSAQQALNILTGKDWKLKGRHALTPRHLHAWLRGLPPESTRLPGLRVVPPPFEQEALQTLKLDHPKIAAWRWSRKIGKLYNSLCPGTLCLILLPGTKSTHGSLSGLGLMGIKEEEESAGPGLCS
UniProt Q8NC44: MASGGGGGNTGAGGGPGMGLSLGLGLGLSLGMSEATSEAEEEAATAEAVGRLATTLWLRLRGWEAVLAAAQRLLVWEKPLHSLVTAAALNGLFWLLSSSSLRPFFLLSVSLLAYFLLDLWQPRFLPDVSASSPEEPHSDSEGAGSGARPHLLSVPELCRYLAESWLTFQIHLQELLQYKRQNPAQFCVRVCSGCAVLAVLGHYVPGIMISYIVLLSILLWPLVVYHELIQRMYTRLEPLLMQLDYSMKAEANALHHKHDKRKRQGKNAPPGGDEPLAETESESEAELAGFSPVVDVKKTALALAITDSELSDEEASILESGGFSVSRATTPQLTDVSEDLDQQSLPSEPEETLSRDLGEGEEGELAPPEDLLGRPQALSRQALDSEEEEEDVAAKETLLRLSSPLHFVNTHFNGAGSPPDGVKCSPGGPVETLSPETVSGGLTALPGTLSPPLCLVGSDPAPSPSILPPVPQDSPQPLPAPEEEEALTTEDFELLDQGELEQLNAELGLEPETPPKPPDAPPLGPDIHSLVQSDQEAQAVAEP
UniProt Q8TC12: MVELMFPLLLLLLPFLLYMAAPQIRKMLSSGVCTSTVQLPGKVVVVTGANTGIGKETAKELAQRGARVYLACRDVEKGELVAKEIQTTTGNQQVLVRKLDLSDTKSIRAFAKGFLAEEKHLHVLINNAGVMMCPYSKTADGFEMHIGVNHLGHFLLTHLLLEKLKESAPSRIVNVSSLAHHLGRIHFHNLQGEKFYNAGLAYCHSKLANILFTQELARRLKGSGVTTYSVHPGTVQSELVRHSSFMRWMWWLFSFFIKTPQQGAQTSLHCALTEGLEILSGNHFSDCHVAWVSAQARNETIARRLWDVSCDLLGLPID
UniProt Q9HCJ3: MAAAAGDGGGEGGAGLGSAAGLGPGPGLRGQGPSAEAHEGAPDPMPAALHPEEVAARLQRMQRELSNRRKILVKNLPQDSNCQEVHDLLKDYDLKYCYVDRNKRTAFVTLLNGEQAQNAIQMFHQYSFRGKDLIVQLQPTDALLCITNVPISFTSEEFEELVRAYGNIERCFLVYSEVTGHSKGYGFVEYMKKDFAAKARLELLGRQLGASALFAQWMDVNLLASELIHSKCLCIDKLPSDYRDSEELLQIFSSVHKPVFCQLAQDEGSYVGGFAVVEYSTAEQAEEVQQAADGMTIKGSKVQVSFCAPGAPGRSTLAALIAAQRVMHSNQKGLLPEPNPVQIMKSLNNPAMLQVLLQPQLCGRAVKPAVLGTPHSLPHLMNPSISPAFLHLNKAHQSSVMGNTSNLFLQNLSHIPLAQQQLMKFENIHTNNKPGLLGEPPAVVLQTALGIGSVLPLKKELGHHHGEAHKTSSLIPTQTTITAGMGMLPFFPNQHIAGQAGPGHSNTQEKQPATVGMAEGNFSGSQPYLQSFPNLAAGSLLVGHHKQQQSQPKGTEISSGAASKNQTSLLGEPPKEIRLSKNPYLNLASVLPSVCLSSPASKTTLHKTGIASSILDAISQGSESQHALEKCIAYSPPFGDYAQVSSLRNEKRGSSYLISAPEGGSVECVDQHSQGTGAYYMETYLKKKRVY
UniProt Q09028, whole entry, looked up: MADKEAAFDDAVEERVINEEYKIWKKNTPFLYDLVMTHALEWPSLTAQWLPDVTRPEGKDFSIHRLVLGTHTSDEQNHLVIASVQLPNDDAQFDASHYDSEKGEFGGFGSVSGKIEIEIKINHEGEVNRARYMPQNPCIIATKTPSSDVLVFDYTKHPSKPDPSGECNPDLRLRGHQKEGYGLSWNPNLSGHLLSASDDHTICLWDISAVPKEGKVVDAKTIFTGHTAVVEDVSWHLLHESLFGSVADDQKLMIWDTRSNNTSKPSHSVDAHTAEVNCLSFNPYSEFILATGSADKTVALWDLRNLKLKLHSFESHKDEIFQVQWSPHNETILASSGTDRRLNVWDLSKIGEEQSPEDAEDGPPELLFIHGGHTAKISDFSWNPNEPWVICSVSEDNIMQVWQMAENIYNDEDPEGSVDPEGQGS
UniProt Q6PCD5: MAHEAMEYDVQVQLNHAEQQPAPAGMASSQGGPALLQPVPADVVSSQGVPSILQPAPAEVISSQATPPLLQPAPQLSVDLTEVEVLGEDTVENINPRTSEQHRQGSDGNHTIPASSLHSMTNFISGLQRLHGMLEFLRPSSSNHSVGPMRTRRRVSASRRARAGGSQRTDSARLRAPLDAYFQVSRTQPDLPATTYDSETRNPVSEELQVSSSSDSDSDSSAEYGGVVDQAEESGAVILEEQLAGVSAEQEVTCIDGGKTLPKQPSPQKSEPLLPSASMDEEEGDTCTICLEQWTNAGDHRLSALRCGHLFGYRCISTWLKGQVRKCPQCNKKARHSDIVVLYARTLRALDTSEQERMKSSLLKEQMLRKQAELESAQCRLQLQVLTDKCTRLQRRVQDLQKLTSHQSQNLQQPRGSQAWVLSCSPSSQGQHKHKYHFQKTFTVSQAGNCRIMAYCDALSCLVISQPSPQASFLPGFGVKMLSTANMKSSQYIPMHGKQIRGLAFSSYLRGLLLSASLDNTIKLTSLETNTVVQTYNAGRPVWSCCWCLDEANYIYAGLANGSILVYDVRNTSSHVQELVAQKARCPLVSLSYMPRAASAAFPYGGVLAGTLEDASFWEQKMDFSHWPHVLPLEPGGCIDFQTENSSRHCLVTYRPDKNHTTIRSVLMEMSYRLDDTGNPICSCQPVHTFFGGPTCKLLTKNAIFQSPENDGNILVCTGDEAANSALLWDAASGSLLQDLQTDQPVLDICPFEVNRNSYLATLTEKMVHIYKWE
UniProt Q96H35: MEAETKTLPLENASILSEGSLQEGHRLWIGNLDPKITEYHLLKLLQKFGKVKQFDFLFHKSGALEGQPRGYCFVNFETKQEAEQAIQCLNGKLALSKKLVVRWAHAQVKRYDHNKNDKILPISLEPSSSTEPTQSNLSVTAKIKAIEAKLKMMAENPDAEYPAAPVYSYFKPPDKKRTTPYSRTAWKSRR
UniProt Q9H477: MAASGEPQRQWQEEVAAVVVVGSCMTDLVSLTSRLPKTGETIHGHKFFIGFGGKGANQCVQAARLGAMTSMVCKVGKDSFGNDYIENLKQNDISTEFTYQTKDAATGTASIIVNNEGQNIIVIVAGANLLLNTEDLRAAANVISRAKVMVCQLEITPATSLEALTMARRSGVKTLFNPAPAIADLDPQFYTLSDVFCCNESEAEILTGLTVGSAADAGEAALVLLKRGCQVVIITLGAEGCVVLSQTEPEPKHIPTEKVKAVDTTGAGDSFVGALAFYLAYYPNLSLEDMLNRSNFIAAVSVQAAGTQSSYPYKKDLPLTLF

defactinib = compound: CNC(=O)c1ccc(Nc2ncc(C(F)(F)F)c(NCc3nccnc3N(C)S(C)(=O)=O)n2)cc1 [defactinib]
Method in brief: as §1

encorafenib = compound: COC(=O)N[C@@H](C)CNc1nccc(-c2cn(C(C)C)nc2-c2cc(Cl)cc(NS(C)(=O)=O)c2F)n1 [encorafenib]
Method in brief: as §1

[1] = compound: COC(=O)[C@H](CCSC)NC(=O)C1=C(C=C(C=C1)NC[C@H](CS)N)C2=CC=CC=C2
Method in brief: as §1

[2] = compound: COc1cc2nc(-c3cc(F)ccc3O)nc(N[C@@H]3CNC[C@H]3C(C)(C)O)c2cc1OC
Method in brief: as §1

lapatinib = compound: CS(=O)(=O)CCNCc1ccc(-c2ccc3ncnc(Nc4ccc(OCc5cccc(F)c5)c(Cl)c4)c3c2)o1 [lapatinib]
Method in brief: as §1

pictilisib = compound: CS(=O)(=O)N1CCN(Cc2cc3nc(-c4cccc5[nH]ncc45)nc(N4CCOCC4)c3s2)CC1 [pictilisib]
Method in brief: as §1

[3] = compound: C[C@H](C1=CC=C(C=C1)C(=O)NC2=C3C=CNC3=NC=C2)N
Method in brief: as §1

gandotinib = compound: Cc1cc(Nc2cc(CN3CCOCC3)c3nc(C)c(Cc4ccc(Cl)cc4F)n3n2)n[nH]1 [gandotinib]
Method in brief: as §1

tozasertib = compound: Cc1cc(Nc2cc(N3CCN(C)CC3)nc(Sc3ccc(NC(=O)C4CC4)cc3)n2)n[nH]1 [tozasertib]
Method in brief: as §1

bafetinib = compound: Cc1ccc(NC(=O)c2ccc(CN3CC[C@H](N(C)C)C3)c(C(F)(F)F)c2)cc1Nc1nccc(-c2cncnc2)n1 [bafetinib]
Method in brief: as §1

[4] = compound: Cc1cccc(CC(=O)N2CCc3c2ccc(-c2cn(C)c4ncnc(N)c24)c3F)n1
Method in brief: as §1

Tubastatin A = compound: CN1CCc2c(c3ccccc3n2Cc2ccc(C(=O)NO)cc2)C1 [Tubastatin A]
Method in brief: as §1

[5] = compound: CNC(=O)C1=CC=CC=C1NC2=NC(=NC=C2Cl)NC3=C(C=C(C=C3)N4CCOCC4)OC
Method in brief: as §1

[6] = compound: CNc1nc(-c2ccc3c(N)n[nH]c3c2)cc(N2C[C@@H](C(=O)NC3CCCCC3)CC[C@H]2C)n1
Method in brief: as §1

crizotinib = compound: C[C@@H](Oc1cc(-c2cnn(C3CCNCC3)c2)cnc1N)c1c(Cl)ccc(F)c1Cl [crizotinib]
Method in brief: as §1

duvelisib = compound: C[C@H](Nc1ncnc2nc[nH]c12)c1cc2cccc(Cl)c2c(=O)n1-c1ccccc1 [duvelisib]
Method in brief: as §1

doramapimod = compound: Cc1ccc(-n2nc(C(C)(C)C)cc2NC(=O)Nc2ccc(OCCN3CCOCC3)c3ccccc23)cc1 [doramapimod]
Method in brief: as §1

alisertib = compound: COc1cc(Nc2ncc3c(n2)-c2ccc(Cl)cc2C(c2c(F)cccc2OC)=NC3)ccc1C(=O)O [alisertib]
Method in brief: as §1

gefitinib = compound: COc1cc2ncnc(Nc3ccc(F)c(Cl)c3)c2cc1OCCCN1CCOCC1 [gefitinib]
Method in brief: as §1

| Target | log2 fold change (alvocidib) | log2 fold change (defactinib) | log2 fold change (encorafenib) | log2 fold change [1] | log2 fold change [2] | log2 fold change (lapatinib) | log2 fold change (pictilisib) | log2 fold change [3] | log2 fold change (gandotinib) | log2 fold change (tozasertib) | log2 fold change (bafetinib) | log2 fold change [4] | log2 fold change (Tubastatin A) | log2 fold change [5] | log2 fold change [6] | log2 fold change (crizotinib) | log2 fold change (duvelisib) | log2 fold change (doramapimod) | log2 fold change (alisertib) | log2 fold change (gefitinib) |
| --- | --- | --- | --- | --- | --- | --- | --- | --- | --- | --- | --- | --- | --- | --- | --- | --- | --- | --- | --- | --- |
| RHBDD1 (UniProt Q8TEB9) | inactive: -0.018 | inactive: 0.024 | inactive: 0.063 | inactive: 0.054 | inactive: 0.02 | inactive: 0.06 | inactive: -0.216 | inactive: 0.036 | inactive: -0.118 | inactive: -0.071 | inactive: -0.133 | inactive: -0.028 |  |  |  |  |  |  |  |  |
| RETSAT (UniProt Q6NUM9) | inactive: -0.114 | inactive: -0.045 | inactive: 0.079 | inactive: 0.025 | inactive: -0.059 | inactive: 0.056 | inactive: -0.048 | inactive: -0.159 | inactive: 0.167 | inactive: -0.024 | inactive: -0.097 | inactive: 0.391 | inactive: 0.179 | inactive: -0.071 | inactive: 0.402 | inactive: -0.329 | inactive: 0.039 | inactive: 0.006 |  |  |
| RECQL4 (UniProt O94761) | inactive: 0.042 | inactive: 0.049 | inactive: 0.023 | inactive: 0.056 |  |  | inactive: -0.032 | inactive: -0.039 | active: -0.472 | inactive: -0.014 | inactive: -0.099 | inactive: 0.146 | inactive: -0.045 | inactive: 0.104 | inactive: -0.02 | inactive: -0.079 | inactive: 0.061 | inactive: 0.029 | inactive: 0.028 | inactive: 0.065 |
| RBFA (UniProt Q8N0V3) | inactive: 0.122 |  |  |  |  |  |  | inactive: -0.121 | inactive: 0.117 |  |  | inactive: -0.132 | inactive: 0.011 | inactive: 0.127 |  | inactive: -0.127 |  | inactive: -0.119 | inactive: -0.003 | inactive: -0.332 |
| RHD (UniProt Q02161) | inactive: -0.187 |  |  |  |  |  |  | inactive: -0.187 | inactive: -0.079 |  |  | inactive: -0.037 | inactive: 0.033 |  | inactive: 0.04 |  | inactive: -0.006 |  |  |  |
| RBL2 (UniProt Q08999) | inactive: 0.078 |  | inactive: 0.045 | inactive: 0.071 | inactive: 0.076 | inactive: -0.013 | inactive: 0.004 | inactive: 0.004 | inactive: -0.081 | inactive: -0.163 | inactive: 0.064 | inactive: 0.145 | inactive: -0.104 |  | inactive: 0.003 | inactive: -0.018 | inactive: -0.082 | inactive: 0.044 | inactive: 0.04 | inactive: 0.04 |
| REXO5 (UniProt Q96IC2) | inactive: 0.018 | inactive: 0.033 | inactive: 0.055 | inactive: 0.103 |  |  | inactive: -0.012 | inactive: -0.091 | inactive: -0.056 | inactive: 0.038 | inactive: -0.065 | inactive: 0.012 | inactive: -0.012 | inactive: 0.036 | inactive: 0.023 |  | inactive: -0.014 |  | inactive: -0.039 | inactive: 0.054 |
| RETREG2 (UniProt Q8NC44) | inactive: -0.069 | inactive: -0.12 | inactive: -0.002 | inactive: -0.096 | inactive: -0.007 | inactive: -0.051 | inactive: -0.037 | inactive: -0.052 | inactive: -0.052 | inactive: 0.025 | inactive: -0.141 | inactive: 0.122 | inactive: -0.025 | inactive: 0 |  | inactive: -0.074 |  | inactive: -0.005 | inactive: -0.029 | inactive: -0.058 |
| RDH11 (UniProt Q8TC12) | inactive: -0.071 | inactive: 0 | inactive: 0.092 | inactive: 0.149 | inactive: 0.082 | inactive: -0.035 |  | inactive: -0.11 | active: 0.298 | inactive: 0.009 |  | active: 0.328 | inactive: 0.031 | inactive: 0.011 | inactive: 0.1 | inactive: -0.034 | inactive: -0.011 | inactive: 0.041 | inactive: -0.009 | inactive: -0.019 |
| RAVER2 (UniProt Q9HCJ3) | inactive: 0.059 |  | inactive: 0.091 | inactive: -0.359 |  |  |  | inactive: -0.032 | inactive: 0.261 | inactive: 0.05 |  | inactive: 0.15 | inactive: 0.022 | inactive: -0.12 | inactive: 0.175 | inactive: -0.117 | inactive: -0.01 | inactive: -0.04 |  |  |
| RBBP4 isoform 4 (UniProt Q09028) | inactive: -0.178 |  |  |  | inactive: 0.044 | inactive: -0.122 |  | inactive: -0.006 | inactive: -0.248 |  |  | inactive: -0.052 | inactive: 0.108 |  |  |  |  |  | inactive: 0.06 | inactive: 0.114 |
| RFWD3 (UniProt Q6PCD5) | inactive: -0.057 | inactive: 0.082 | inactive: 0.1 | inactive: -0.052 |  |  | inactive: -0.12 | inactive: 0.036 | inactive: 0.004 | inactive: -0.037 | inactive: -0.04 | inactive: 0.107 | inactive: 0.065 | inactive: 0.051 | inactive: -0.057 | inactive: -0.066 | inactive: 0.041 | inactive: 0.036 | inactive: 0.114 | inactive: -0.057 |
| RBM18 (UniProt Q96H35) | inactive: 0.13 | inactive: 0.093 | inactive: 0.119 | inactive: -0.03 |  |  |  | inactive: 0.274 | inactive: 0.077 | inactive: 0.081 |  | inactive: -0.051 | inactive: 0.002 |  |  |  |  |  | inactive: 0.014 | inactive: -0.096 |
| RBKS (UniProt Q9H477) | inactive: -0.184 |  |  |  |  |  |  | inactive: -0.057 | inactive: 0.012 |  |  | inactive: -0.059 | inactive: 0.359 |  | inactive: -0.04 |  | inactive: 0.072 |  |  |  |

Just log2 fold change (doramapimod) and log2 fold change (alvocidib), for some of the entries so far:
Target	log2 fold change (doramapimod)	log2 fold change (alvocidib)
RBBP4 isoform 4 (UniProt Q09028)		inactive: -0.178
RFWD3 (UniProt Q6PCD5)	inactive: 0.036	inactive: -0.057
